PubChem BioAssay AID1224830, NIAID – 2016

Assay: 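Regulators of TLR4 signalling towards TNF-alpha in macrophage-like cells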 (primary screen)
Cell system: human THP-1 monocytic leukaemia cells, TNF dual-luciferase reporter clone, PMA-differentiated to macrophage-like cells
Reagents: siRNA pool against human genes, 50 nM
Duration: LPS for 4 h, given about 3 days after siRNA transfection
Conditions: bacterial LPS (TLR4 ligand), 10 ng/ml
Measurement: 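Ratio of firefly to renilla light, scaled to the plate median and expressed as a robust z-score per replicate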
Direction: TNF reporter robust z-score: higher = stronger TNF reporter response to LPS
Active means: 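Each well counts as active if its z-score is over 2.8 or under -1.5; controls are left without a call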
The deposit covers about 18,000 reagents; shown is a random part of them. About 2,900 of all reagents (16%) were called active. 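Calls are made per well; low scores hint the gene aids the LPS response, high scores that it dampens it.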 Unmarked entries are inactive. Repeated entries: four replicate wells of each siRNA pool.

For DHRS7B (GeneID 25979), what does the deposit list?
TNF reporter robust z-score: 1.86

How did the screen score DHRS7B (GeneID 25979)?
TNF reporter robust z-score: -0.7

With DHRS7B (GeneID 25979), how do the results read?
TNF reporter robust z-score: 0.9

With DHRS7B (GeneID 25979), what was measured?
TNF reporter robust z-score: 0.3

What did the screen give for MYDGF (GeneID 56005)?
TNF reporter robust z-score: 0.35

With MYDGF (GeneID 56005), how do the results read?
TNF reporter robust z-score: -0.12

With MYDGF (GeneID 56005), what does the deposit list?
TNF reporter robust z-score: 0.51

How did the screen score MYDGF (GeneID 56005)?
TNF reporter robust z-score: 0.94

With CCNA1 (GeneID 8900), what does the deposit list?
TNF reporter robust z-score: -1.22

With CCNA1 (GeneID 8900), how do the results read?
TNF reporter robust z-score: -0.79

What is on record for CCNA1 (GeneID 8900)?
TNF reporter robust z-score: -0.17

What is on record for CCNA1 (GeneID 8900)?
TNF reporter robust z-score: 2

With VCY1B (GeneID 353513), how do the results read?
TNF reporter robust z-score: 1.73

Which result is listed for VCY1B (GeneID 353513)?
TNF reporter robust z-score: 1.27

What did the screen give for VCY1B (GeneID 353513)?
TNF reporter robust z-score: -0.17

What is on record for VCY1B (GeneID 353513)?
TNF reporter robust z-score: -0.35

What is on record for TXNRD1 (GeneID 7296)?
TNF reporter robust z-score: -0.74

For TXNRD1 (GeneID 7296), what does the deposit list?
TNF reporter robust z-score: -0.1

What did the screen give for TXNRD1 (GeneID 7296)?
TNF reporter robust z-score: -0.15

What did the screen give for TXNRD1 (GeneID 7296)?
TNF reporter robust z-score: -1.34

Which result is listed for B4GALNT3 (GeneID 283358)?
TNF reporter robust z-score: -0.84

How did the screen score B4GALNT3 (GeneID 283358)?
TNF reporter robust z-score: 1.33

What did the screen give for B4GALNT3 (GeneID 283358)?
TNF reporter robust z-score: -0.58

What is on record for B4GALNT3 (GeneID 283358)?
TNF reporter robust z-score: 0.32

Which result is listed for CATSPER2 (GeneID 117155)?
TNF reporter robust z-score: -0.51

For CATSPER2 (GeneID 117155), what does the deposit list?
TNF reporter robust z-score: -0.94

With CATSPER2 (GeneID 117155), what does the deposit list?
TNF reporter robust z-score: -1.22

What is on record for CATSPER2 (GeneID 117155)?
TNF reporter robust z-score: -0.33

What is on record for KRT18P55 (GeneID 284085)?
TNF reporter robust z-score: 0.13

Which result is listed for KRT18P55 (GeneID 284085)?
TNF reporter robust z-score: 0.5

With KRT18P55 (GeneID 284085), what was measured?
TNF reporter robust z-score: 0.43

With KRT18P55 (GeneID 284085), how do the results read?
TNF reporter robust z-score: 0.3

What did the screen give for PGAM2 (GeneID 5224)?
TNF reporter robust z-score: -0.89

What did the screen give for PGAM2 (GeneID 5224)?
TNF reporter robust z-score: -0.67

With PGAM2 (GeneID 5224), how do the results read?
TNF reporter robust z-score: -0.83

How did the screen score PGAM2 (GeneID 5224)?
TNF reporter robust z-score: -0.49

With ACY3 (GeneID 91703), what was measured?
TNF reporter robust z-score: 0.63

For ACY3 (GeneID 91703), how do the results read?
TNF reporter robust z-score: 0.31

Which result is listed for ACY3 (GeneID 91703)?
TNF reporter robust z-score: -0.26

With ACY3 (GeneID 91703), what was measured?
TNF reporter robust z-score: 0.11

For UBA2 (GeneID 10054), what does the deposit list?
TNF reporter robust z-score: -0.64

For UBA2 (GeneID 10054), what does the deposit list?
TNF reporter robust z-score: 1.22

With UBA2 (GeneID 10054), what does the deposit list?
TNF reporter robust z-score: 0.16

With UBA2 (GeneID 10054), how do the results read?
TNF reporter robust z-score: 1.03

What is on record for IGFL1 (GeneID 374918)?
TNF reporter robust z-score: -0.04

With IGFL1 (GeneID 374918), how do the results read?
TNF reporter robust z-score: 1.13

Which result is listed for IGFL1 (GeneID 374918)?
TNF reporter robust z-score: 1.75

7 of these entries, reformatted:
| Gene | TNF reporter robust z-score |
| --- | --- |
| CCNA1 (GeneID 8900) | -0.79 |
| CCNA1 (GeneID 8900) | -0.17 |
| CCNA1 (GeneID 8900) | 2 |
| VCY1B (GeneID 353513) | 1.73 |
| VCY1B (GeneID 353513) | 1.27 |
| VCY1B (GeneID 353513) | -0.17 |
| VCY1B (GeneID 353513) | -0.35 |
